Experimental data from PMC10478313.
Results are given in words; binding and its absence hold for the method and conditions named. In cells and extracts the contact can be indirect. Some results given as binding are weak or reduced against the parent protein; the word gives no strength.

The chains behind the UniProt entries cited, without tags or fusion partners.
UniProt Q15436: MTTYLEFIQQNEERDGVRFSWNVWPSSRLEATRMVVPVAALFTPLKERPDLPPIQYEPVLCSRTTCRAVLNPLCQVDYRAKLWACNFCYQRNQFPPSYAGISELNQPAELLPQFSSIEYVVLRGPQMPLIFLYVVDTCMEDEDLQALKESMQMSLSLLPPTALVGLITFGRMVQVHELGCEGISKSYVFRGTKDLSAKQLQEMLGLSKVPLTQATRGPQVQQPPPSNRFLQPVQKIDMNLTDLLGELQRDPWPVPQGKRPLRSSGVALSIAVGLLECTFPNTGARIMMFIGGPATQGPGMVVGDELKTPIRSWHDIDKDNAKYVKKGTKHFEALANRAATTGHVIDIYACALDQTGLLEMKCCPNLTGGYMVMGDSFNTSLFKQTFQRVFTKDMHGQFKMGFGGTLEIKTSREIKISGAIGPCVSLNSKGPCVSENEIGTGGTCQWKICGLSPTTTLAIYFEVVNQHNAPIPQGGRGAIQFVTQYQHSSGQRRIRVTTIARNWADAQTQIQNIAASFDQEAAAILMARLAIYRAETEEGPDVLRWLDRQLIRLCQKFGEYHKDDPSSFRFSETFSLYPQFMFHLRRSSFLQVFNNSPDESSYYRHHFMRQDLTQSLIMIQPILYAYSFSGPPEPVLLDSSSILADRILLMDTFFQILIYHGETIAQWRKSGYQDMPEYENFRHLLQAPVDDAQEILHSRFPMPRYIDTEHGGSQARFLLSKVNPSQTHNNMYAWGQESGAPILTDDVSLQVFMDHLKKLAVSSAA
UniProt P07355: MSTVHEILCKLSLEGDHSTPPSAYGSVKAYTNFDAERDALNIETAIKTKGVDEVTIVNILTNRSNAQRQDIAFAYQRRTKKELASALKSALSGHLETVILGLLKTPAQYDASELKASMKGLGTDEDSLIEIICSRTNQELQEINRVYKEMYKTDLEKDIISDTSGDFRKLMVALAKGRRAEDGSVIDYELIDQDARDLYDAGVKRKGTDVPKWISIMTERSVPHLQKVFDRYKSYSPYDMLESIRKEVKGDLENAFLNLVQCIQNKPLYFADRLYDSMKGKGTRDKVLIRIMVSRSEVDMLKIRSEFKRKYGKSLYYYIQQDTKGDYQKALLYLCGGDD

Molecular target: Sec23 homolog A (SEC23A) (human (endogenous in MKN45 and HGC27)) (UniProt Q15436)
Experiment: co-IP; Co-IP with anti-SEC23A and anti-ANXA2 antibody, endogenous proteins in MKN45 cells (Fig. 6C) and HGC27 cells (Fig. S5A)

## Annexin A2 (ANXA2) (from UniProt P07355 1-339)
  binding: binds
